{"sequences": {"note": "Chains of the proteins cited; added tags and fusions are not shown. Residues count along the entry.", "UniProt P01024, residues 23-1663": "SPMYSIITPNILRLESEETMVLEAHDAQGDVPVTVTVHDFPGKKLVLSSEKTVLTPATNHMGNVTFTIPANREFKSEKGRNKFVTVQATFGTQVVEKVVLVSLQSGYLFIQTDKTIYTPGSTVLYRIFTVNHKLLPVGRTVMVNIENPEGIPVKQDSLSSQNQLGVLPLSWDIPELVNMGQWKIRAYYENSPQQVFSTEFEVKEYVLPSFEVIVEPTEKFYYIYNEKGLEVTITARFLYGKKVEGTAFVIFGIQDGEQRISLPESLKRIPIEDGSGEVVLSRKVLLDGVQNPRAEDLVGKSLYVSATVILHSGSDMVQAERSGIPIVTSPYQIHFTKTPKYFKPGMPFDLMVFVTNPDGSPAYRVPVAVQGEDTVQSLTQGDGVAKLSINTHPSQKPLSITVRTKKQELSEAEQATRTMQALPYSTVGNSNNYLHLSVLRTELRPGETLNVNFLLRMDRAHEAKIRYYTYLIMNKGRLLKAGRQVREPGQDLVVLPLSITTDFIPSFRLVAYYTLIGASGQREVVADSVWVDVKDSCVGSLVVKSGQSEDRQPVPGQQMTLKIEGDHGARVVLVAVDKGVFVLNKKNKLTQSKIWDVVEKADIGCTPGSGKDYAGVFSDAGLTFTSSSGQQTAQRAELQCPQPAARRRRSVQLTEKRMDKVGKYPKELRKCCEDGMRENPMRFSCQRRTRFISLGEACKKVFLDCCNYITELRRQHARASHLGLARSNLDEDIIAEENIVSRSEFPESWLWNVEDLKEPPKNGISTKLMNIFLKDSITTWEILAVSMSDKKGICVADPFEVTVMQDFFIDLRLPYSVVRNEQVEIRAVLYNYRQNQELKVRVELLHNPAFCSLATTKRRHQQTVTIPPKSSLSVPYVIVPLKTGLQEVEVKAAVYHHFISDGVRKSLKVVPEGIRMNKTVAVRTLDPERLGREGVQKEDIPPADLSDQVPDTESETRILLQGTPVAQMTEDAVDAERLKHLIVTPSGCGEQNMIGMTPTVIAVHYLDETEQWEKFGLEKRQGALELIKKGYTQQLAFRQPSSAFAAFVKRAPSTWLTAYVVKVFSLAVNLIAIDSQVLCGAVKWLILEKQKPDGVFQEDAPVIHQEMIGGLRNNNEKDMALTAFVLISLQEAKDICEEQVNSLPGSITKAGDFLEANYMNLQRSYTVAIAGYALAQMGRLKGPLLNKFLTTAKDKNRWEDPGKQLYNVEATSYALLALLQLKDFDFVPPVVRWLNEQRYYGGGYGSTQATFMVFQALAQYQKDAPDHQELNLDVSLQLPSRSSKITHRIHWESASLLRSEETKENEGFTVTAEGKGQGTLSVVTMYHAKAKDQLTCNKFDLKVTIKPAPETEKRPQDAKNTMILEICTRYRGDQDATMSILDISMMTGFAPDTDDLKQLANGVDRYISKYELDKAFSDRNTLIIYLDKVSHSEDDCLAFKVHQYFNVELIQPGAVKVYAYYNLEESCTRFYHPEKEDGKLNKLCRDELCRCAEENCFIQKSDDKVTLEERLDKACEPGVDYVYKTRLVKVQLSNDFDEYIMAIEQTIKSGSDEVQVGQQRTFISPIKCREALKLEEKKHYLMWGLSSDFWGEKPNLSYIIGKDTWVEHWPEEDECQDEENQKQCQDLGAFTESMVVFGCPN", "UniProt P99999": "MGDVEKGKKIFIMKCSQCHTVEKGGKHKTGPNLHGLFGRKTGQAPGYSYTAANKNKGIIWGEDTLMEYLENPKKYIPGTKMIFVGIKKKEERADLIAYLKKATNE"}, "source": "paper doi:10.1101/2023.05.01.538962", "target": "Flag-pro-C3 (full-length single chain human pro-C3 with a Flag-tag at its C-terminal) (human) (UniProt P01024)", "test": "pull-down", "note": "These are yes or no findings as the source states them, for the method shown. Binding seen in cells or lysates may run through a third protein.", "data": [{"substance": "cytochrome c (endogenous, AC16 cells) (from UniProt P99999 1-105)", "values": [{"measurement": "binding", "result": "no binding"}]}]}
